This passage reports binding results from paper PMC5239560.

By UniProt entry, the sequences of proteins in these tests, tags left out.
UniProt Q9BSK0: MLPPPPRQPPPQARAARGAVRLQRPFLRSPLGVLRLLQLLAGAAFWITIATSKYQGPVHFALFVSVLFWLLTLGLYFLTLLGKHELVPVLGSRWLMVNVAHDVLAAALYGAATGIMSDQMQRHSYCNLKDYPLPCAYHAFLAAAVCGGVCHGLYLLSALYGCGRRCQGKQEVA

No constants are given. Whether binding was seen depends on the method and setting. In cells and extracts the contact can be indirect. Some results given as binding are weak or reduced against the parent protein; the word gives no strength. Where a sequence is shown, tags or fusion partners need not be part of it.

The target in this assay is T1, Flag-SREBP1a (UniProt P36956).
T1 sequence: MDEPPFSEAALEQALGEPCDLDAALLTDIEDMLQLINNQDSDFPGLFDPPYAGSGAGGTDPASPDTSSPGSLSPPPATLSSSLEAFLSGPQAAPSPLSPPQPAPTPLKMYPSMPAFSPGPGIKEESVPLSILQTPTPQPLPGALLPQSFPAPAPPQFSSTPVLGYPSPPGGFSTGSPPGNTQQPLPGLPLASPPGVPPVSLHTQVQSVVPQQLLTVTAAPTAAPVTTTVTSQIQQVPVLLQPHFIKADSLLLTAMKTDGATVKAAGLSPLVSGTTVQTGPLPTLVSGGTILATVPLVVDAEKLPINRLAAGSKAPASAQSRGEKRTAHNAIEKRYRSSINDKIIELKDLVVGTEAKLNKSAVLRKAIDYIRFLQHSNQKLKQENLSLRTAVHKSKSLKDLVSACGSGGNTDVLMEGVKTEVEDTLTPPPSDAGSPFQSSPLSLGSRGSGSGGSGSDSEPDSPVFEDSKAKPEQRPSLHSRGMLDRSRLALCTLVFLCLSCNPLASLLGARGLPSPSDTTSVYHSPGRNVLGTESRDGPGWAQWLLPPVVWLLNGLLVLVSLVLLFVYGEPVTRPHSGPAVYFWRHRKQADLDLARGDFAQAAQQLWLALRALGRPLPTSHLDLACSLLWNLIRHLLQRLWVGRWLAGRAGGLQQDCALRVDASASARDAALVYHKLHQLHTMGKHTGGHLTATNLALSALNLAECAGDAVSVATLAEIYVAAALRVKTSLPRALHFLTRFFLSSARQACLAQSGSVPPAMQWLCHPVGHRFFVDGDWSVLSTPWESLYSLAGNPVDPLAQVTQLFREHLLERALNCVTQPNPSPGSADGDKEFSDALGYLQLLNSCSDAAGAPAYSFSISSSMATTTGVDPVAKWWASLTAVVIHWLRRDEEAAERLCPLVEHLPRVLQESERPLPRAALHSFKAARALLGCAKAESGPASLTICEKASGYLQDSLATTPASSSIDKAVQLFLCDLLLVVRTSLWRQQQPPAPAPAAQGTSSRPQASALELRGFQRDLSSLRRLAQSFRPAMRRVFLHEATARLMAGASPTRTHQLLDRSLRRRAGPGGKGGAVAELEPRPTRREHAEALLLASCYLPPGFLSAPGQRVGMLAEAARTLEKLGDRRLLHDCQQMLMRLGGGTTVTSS
In words: co-IP; HEK293T co-transfected with Flag-SREBP1a and HA-MARVELD1, 48 h; lysates in IP buffer, anti-Flag M2 affinity gel 3 h at 4°C (IgG as control); immunoblot with anti-HA and anti-Flag. Background: Immunoblotting shows a protein as a band on a membrane.

On to HA-MARVELD1 (from UniProt Q9BSK0 1-173), for which the binding result is reported as “binds”.
